The test concerns the target T1, FLT3/IDT mutant on cell line MV-4-11 (UniProt P36888).
T1 sequence (looked up): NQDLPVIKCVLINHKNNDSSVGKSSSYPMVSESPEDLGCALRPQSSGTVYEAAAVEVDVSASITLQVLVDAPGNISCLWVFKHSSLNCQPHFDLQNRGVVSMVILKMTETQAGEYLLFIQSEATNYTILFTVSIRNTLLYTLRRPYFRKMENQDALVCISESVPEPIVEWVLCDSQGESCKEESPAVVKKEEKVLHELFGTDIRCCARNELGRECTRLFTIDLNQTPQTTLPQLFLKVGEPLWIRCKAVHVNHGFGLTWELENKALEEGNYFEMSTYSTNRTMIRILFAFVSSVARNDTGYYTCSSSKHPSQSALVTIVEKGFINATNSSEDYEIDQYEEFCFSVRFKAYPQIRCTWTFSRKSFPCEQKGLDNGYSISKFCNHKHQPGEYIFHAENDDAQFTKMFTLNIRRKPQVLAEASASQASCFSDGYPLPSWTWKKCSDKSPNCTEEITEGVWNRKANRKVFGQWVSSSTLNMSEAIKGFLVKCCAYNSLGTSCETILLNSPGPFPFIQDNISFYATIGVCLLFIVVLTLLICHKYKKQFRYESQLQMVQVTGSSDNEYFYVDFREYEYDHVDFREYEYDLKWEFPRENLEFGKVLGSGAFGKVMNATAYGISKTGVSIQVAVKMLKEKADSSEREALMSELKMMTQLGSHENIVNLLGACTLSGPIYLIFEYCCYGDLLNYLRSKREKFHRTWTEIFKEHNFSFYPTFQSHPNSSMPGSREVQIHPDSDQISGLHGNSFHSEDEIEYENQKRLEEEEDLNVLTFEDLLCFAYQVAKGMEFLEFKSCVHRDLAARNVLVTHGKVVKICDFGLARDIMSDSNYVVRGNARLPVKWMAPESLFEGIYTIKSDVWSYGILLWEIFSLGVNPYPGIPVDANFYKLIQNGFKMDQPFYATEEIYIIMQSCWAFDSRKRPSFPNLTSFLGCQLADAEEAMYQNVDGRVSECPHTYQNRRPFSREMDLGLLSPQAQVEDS
In words: flow cytometry on MV-4-11 cells, anti-His-PE detection.

Results are given in words; binding and its absence hold for the method and conditions named. Some results given as binding are weak or reduced against the parent protein; the word gives no strength.

B1: m1012 (VHH)
VHH: EVQLVESGGGLVQPGGSLRLSCAASRFYFSGYEMSWVRQAPGKGLEWVSAISGSGGSTYYADSVKGRFTISRDNSKNTLYLQMNSLRAEDTAVYYCARRVVGAKLYFQHWGQGTLVTVSS
For B1, the binding entry is “binds”.

For the origin of these results see patent publication US20190352408A1.
